For 4 molecules, binding results are on record in PMC10711660, “An extended Tudor domain within Vreteno interconnects Gtsf1L and Ago3 for piRNA biogenesis in Bombyx mori” (The EMBO Journal, 2023).

Assay [1] concerns the target T1, HA‐tagged BmGtsf1L (Bombyx mori).
T1 sequence: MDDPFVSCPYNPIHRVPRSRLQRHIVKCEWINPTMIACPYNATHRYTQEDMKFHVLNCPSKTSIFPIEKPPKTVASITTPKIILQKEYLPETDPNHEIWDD
In words: affinity purification with mass spectrometry; anti-HA immunoprecipitation from lysate of BmN4 cells transiently expressing HA-BmGtsf1L, HA-eGFP as control; dimethyl labelling, technical duplicates, threshold 2-fold enrichment.

Assay [2] shares this target. Described as above. The source holds these as a separate data set.

Where two headings read alike, the source gives them in different places. These are yes or no findings as the source states them, for the method shown. In cells and extracts the contact can be indirect. A yes stands for co-enrichment or nearness to the bait. Other partners may have been found. Tags and fused reporters may be left off the sequences shown.

For the molecule “endogenous BmQin (Bombyx mori (endogenous in BmN4))”, in assay [1], the binding entry was “binds”. As for “endogenous BmSpn‐E (Bombyx mori (endogenous in BmN4))”, in assay [1], the binding result is recorded as “binds”.

B1: endogenous Siwi (protein, UniProt A8D8P8 1-899)
chain: MSEPRGRGRARGRAGRGGDGGGPAPRRPGEQAGPSQQSMPPGPRPQPPSGWGPQSSVPPVRAGVPTPTAQAGRASHRVTPTTHEHPGDIDVQQRMQKLELGPHSSGGGDASSVVGRGSRRGGGRVLPETISILRTRPEAVTSKKGTSGTPLDLLANYFTVETTPKWGLYQYHVDISPEEDSTGVRKALMRVHSKTLGGYLFDGTVLYTVNRLHPDPMELYSDRKTDNERMRILIKLTCEVSPGDYHYIQIFNIIIRKCFNLLKLQLMGRDYFDPEAKIDIPEFKLQIWPGYKTTINQYEDRLLLVTEIAHKVLRMDTVLQMLSEYAATKGNNYKKIFLEDVVGKIVMTDYNKRTYRVDDVAWNVSPKSTFKMRDENITYIEYYYKKYNLRIQDPGQPLLISRSKPREIRAGLPELIYLVPELCRQTGLSDEMRANFKLMRSLDVHTKIGPDKRIEKLNNFNRRFTSTPEVVEELATWSLKLSKELVKIKGRQLPPENIIQANNVKYPAGDTTEGWTRDMRSKHLLAIAQLNSWVVITPERQRRDTESFIDLIIKTGGGVGFRMRSPDLVVIRHDGPIEYANMCEEVIARKNPALILCVLARNYADRYEAIKKKCTVDRAVPTQVVCARNMSSKSAMSIATKVAIQINCKLGGSPWTVDIPLPSLMVVGYDVCHDTRSKEKSFGAFVATLDKQMTQYYSIVNAHTSGEELSSHMGFNIASAVKKFREKNGTYPARIFIYRDGVGDGQIPYVHSHEVAEIKKKLAEIYAGVEIKLAFIIVSKRINTRIFVQRGRSGENPRPGTVIDDVVTLPERYDFYLVSQNVREGTIAPTSYNVIEDTTGLNPDRIQRLTYKLTHLYFNCSSQVRVPSVCQYAHKLAFLAANSLHNQPHYSLNETLYFL
Take B1: in assay [2], the binding entry is on record as “binds”.

B2: endogenous BmAgo3 (protein, UniProt A9ZSZ2 1-926)
chain: MADPGKGRGRSLALLQALKKSQMMDSPSQSESQSPESTPEQSTAPSTIASATPSTSGVSIGGRGRAAALMLAKMQQKPGSTTPAIFVPPSSTSAPTAGTGRGFKLLQNLQASQKASSQIASSQVTSSAQSDIKDLTEKMSETSVSAQASSVAKNKYFREVKDTPPVVKKGETGVPIEVTCNYIYLNFKENIVFEYEVKFEPDQDYKHLRFKLLNEHIEHFKEKTFDGTTLYVPHELPDAVRNLVSTNPYDQSKVNVSIIFRRTRRLSEMIHIYNVMFKCIMKDLKLIRFGRQHYNEHAAIQIPQHKLEVWPGYVTAVDEYEGGLMLTLDSTHRVLRTQTVLSLIKEVVQTEGANWKRKMTDILIGASVMTTYNKKLFRVDTIDDKMSPRSTFEKTEKGETVQISFIDYYKKNYGIEIMDWDQPLLISRDTKRMPGSDTPTDFMICLIPELCQLTGLTDDQRSNFRLMKDVATYTRITPNQRHAAFKKYIESVMKNETAKSRLAGWGLSIAPETVNLTARTLPPETLYFGDNVRVPGKPNAEWNSEVTKHSVMQAVDIMRWVLLFTQRDKQVAMDFLSTLKRNCRPMGIMVSDAELVPLANDRTDTYVLALKKCITSSVQLVVAICSTKRDDRYAAIKKVCCADNPVPSQVINARTLMNTNKIRSITQKILLQLNCKLGGTLWSISIPFKSAMIVGIDSYHDPSRRNRSVCSFVASYNQSMTLWYSKVIFQEKGQEIVDGLKCCLVDALTHYLRSNGQLPDRIIIYRDGVGDGQLKLLQQYEIPQMKICFTILGSNYQPTLTYVVVQKRINTRIFLKSRDGYDNPNPGTVVDHCITRRDWYDFLIVSQKVTQGTVTPTHYVVVYDDSGITPDQCQRLTYKMCHLYYNWPGTVRVPAPCQYAHKLSYLVGQCVHAQPSDVLVDKLFFL
Turning to B2, the binding entry in assay [2] was “binds”.
